“Also recorded” adds a separate entry of the source. For at least one compound, name, drawing or mass did not settle the structure. Some compounds share one wording; it may come from a single statement.
What was measured:
[1] = tested on: Senescent and control IMR90
Protocol: The selectivity index (S.I.) for the EC50 values was determined after […] (GraphPad Prism) of the curves. […] Real-time cell density was measured using an xCELLigence detection system (ACEA Biosciences). Prior to the start of the measurement 50 μL DMEM 10% FCS was added to each well of an E-plate view 16 (Roche) to determine background signal. Non-senescent (2000 cells per well) and senescent (5000 cells/well) IMR90 fibroblasts were then plated in 150 μl medium. 16 hours later the E-plate was placed in the xCELLigence reader and the cell density was recorded every 30 minutes. […] Measurements continued for the indicated time-points. […] Experiment as in FIG. 2C, but with the indicated peptides. […] Cells were plated in 4-well Poly-L-Lysine coated glass bottom 35 mm dishes (D141410; Matsumi, Japan) and incubated with NucView488 Caspase-3 (4440; Essen Bioscience). […] 8h after addition the real-time imaging was initiated and every 30 min a grid of 3×3 pictures was imaged. The imaging continued for another 6 days and the images were concatenated using Zen imaging software. […] After 6 days cell viability was determined as in FIG. 2C). […] Experiment as in FIG. 2C, but according to the indicated treatment plan. Instead of one single dose, three doses were given (one day in between) of ⅓ that concentration each time. […] Left: Experiment as in FIG. 2C, but on cells pretreated once daily for two days with IL-1α Receptor Antagonist (RA), which blocks IL-1α/β signaling, recombinant IL-6 and recombinant IL-1α/β. […] Right: Similar experiment as in the left panel, except viability measured one day earlier. […] In senescent cells p53 signaling causes upregulation of the cell-cycle arrest and pro-survival protein p21Cip1. […] Experiment as in FIG. 2K. […] Experiment as in FIG. 2c, but with control and senescent IMR90 stable transduced with shRNAs against p53 or a control shRNA (shGFP).
A) Control IMR90 and IMR90 induced to senesce through 10Gy IR were plated in triplicate for each condition in a 96-well plate. […] After 6 days viability was determined through AqeousOne celltiter assay (Promega) according to the manufacturer's instructions.
Non-senescent (=“normal”, proliferating) IMR90 cells (ATCC #CCL-186, a diploid primary human fibroblast adherent cell line derived from fetal lung tissue) were irradiated with 10Gy Gamma-IR (IR=irradiation). After 7 days these cells are senescent and can be used for experiments comparing them to their non-irradiated (=non-senescent) counterparts. Senescent and non-senescent IMR90 fibroblasts were plated for longitudinal cell density measurement using the xCELLigence system (ACEA Biosciences, Inc., San Diego, Calif.).
(§1) 5000 senescent (obtained as described above) and 2000 non-senescent IMR90 fibroblasts were plated in 96-well plates incubated with concentrations of NQDI between 0-20 μM and after 6 days cell viability was determined by AqueousOne CellTiter (MTT) assay according to the manufacturer's instructions.
as §1, with “R406, ranging from 16, 32, 64 to 128 nM” for “NQDI between 0-20 μM”
Normal human IMR90 fibroblasts were exposed to 10 Gy Ionizing Radiation or treated 3× (bidaily) with 0.5 μM Doxorubicin. Seven days later they were processed for SA-β-Gal staining to visualize senescent cells. […] DAPI was used as a counterstain to visualize nuclei. […] After 6 days the cell viability was determined using an AqueousOne Celltiter (MTT) assay according to the manufacturer's instructions.

LOX-IMVI [2] = experiment: Viability of LOX-IMVI metastatic melanoma cells; type: cell-based, human; details: for LOX-IMVI viability, agent on its own: single agent
Protocol: Assay as in FIG. 2C with increasing doses of Vemurafenib. […] LOX-IMVI however is resistant. […] Experiment as in FIG. 2C, but with LOX-IMVI treated with FOXO4 DRI alone, the BRAF^V600E-inhitors Vemurafenib or Dabrafenib, or the MEK inhibitor Trametinib alone, or a combination hereof. […] LOX-IMVI cells were incubated with FOXO4 DRI or Vemurafenib alone or in combination. The cells were co-treated with the pan-caspase inhibitor QVD-OPH to block caspase-dependent cell death. After 3 days the media was refreshed with new QVD-OPH containing media, but in the absence of FOXO4 DRI or Vemurafenib. At day 5 after initial treatment the cells were fixed and stained for Cytochrome C. Cytochrome C is present in the mitochondria in viable cells and is released into the cytosol when apoptosis is activated. Plotted are the number of cells showing release of Cytochrome C. […] Experiment as in FIG. 2D with LOX-IMVI treated with Vemurafenib or FOXO4 DRI alone or their combination. […] Experiment as in FIG. 2D using intermediately sensitive A375, pretreated with one doze of Vemurafenib. The surviving cells and the parental, non-exposed cells were compared for viability after a new round of Vemurafenib. […] Thus, similar to what is seen in the clinic (see papers from Bernard's lab Nature, 2014), therapy resistance can be mimicked in this set-up. […] In the clinic RAF inhibitors are frequently followed up on with MEK inhibitors. […] After 6 days however surface-bound IL1α appeared indicative of an active SASP. […] Parental A375, Vemurafenib resistant A375 (survivors of 3 wks chronic Vemurafenib exposure) and intrinsically resistant LOX-IMVI were treated with Vemurafenib or FOXO4 DRI alone or in combination. […] LOX-IMVI were assessed for viability in the presence of FOXO4 DRI, the oxidative stress inhibitor N-Acetyl Cysteine (NAC) or the oxidative stressor H2O2. […] 3D melanoma organoid cultures (melanoids) were generated as described (Kruiswijk et al, Oncogene, 2015) and treated as in FIG. 5F for viability (M) or stained for Apoptosis using TUNEL (N) according to the manufacturer's protocol (Roche).
The sensitivity of the three human metastatic melanoma cell lines, Malme-3M, A375 and LOX-IMVI to increasing doses of Vemurafenib and Trametinib was established. LOX-IMVI cells express high levels of FOXO4 under basal conditions. The experiment was performed as described in Example 1, namely by AqueousOne MTT assay according to the manufacturer's instructions.
LOX-IMVI cells were plated for (i) cell viability assay as in example 1 by AqueousOne MTT assay, (ii) apoptosis by Cytochrome C release, (iii) longitudinal cell density assay, and incubated with the FOXO4 DRI peptide, Vemurafenib/Trametinib, or their combination, respectively. With regard to the apoptosis by Cytochrome C release experiment, 20.000 LOX-IMVI cells were plated on glass coverslips in 24-well plate wells. The next day these were incubated with PBS (Mock) or 50 uM of the FOXO4 in combination with PBS, 2 uM Vemurafenib or 10 nM Trametinib in the presence of 20 nM of the caspase-inhibitor QVD-OPH to prevent caspase-mediated death. The cells were refreshed after two days with new media containing 20 nM QVD-OPH and three days later the cells were fixed and processed for immunofluorescence-detection of Cytochrome C. Dying cells, which were prevented to detach from the coverslips due to the caspase inhibitor show release of Cytochrome C from mitochondria to the cytosol or even complete absence of Cytochrome C, while viable cells show mitochondrial staining only. The % of cells with Cytochrome C release was scored.

A375 = experiment: Viability of A375 metastatic melanoma cells (parental and Vemurafenib survivors); type: cell-based, human
LOX-IMVI [3] = experiment: Apoptosis by Cytochrome C release in LOX-IMVI; type: cell-based, human; details: with QVD-OPH, day 5
IL1α = IL1α localisation in A375 (SASP); type: cell-based, human; details: A375, after 6 days
Malme-3M = experiment: Viability of Malme-3M metastatic melanoma cells; type: cell-based, human; details: increasing doses
FOXO4 = FOXO4 mRNA and protein in LOX-IMVI (QPCR, Western Blot, immunofluorescence); type: cell-based, human; details: Vemurafenib-treated resistant LOX-IMVI

Cc1nc(Nc2ncc(C(=O)Nc3c(C)cccc3Cl)s2)cc(N2CCN(CCO)CC2)n1 [Dasatinib, reference compound]
clearing of senescent IMR90, viability senescent vs non-senescent ([1]; Dasatinib in combination with 0.1 uM Quesrcetin): inefficent towards clearing senescent IMR90

CO[C@H]1C[C@@H]2CC[C@@H](C)[C@@](O)(O2)C(=O)C(=O)N2CCCC[C@H]2C(=O)O[C@H]([C@H](C)C[C@@H]2CC[C@@H](O)[C@H](OC)C2)CC(=O)[C@H](C)/C=C(\C)[C@@H](O)[C@@H](OC)C(=O)[C@H](C)C[C@H](C)/C=C/C=C/C=C/1C [Rapamycin, reference compound]
effect on effectiveness of FOXO4 DRI in lowering senescent cell viability ([1]; viability measured one day earlier): reduce the effectiveness of FOXO4 DRI in lowering senescent cell viability

CC(=O)Nc1cccc(-n2c(=O)n(C3CC3)c(=O)c3c(Nc4ccc(I)cc4F)n(C)c(=O)c(C)c32)c1 [Trametinib, reference compound]
LOX-IMVI viability, agent on its own (LOX-IMVI [2]): do not markedly affect LOX-IMVI viability | viability of Vemurafenib survivors vs parental A375 with Trametinib as second drug (A375; pretreated with Vemurafenib): proved to be more resistant than the parental line

CCCS(=O)(=O)Nc1ccc(F)c(C(=O)c2c[nH]c3ncc(-c4ccc(Cl)cc4)cc23)c1F [Vemurafenib]
sensitivity of intrinsically resistant LOX-IMVI, Vemurafenib alone (LOX-IMVI [2]; FIG. 5K): showed resistance to Vemurafenib | sensitivity to Vemurafenib (viability) (LOX-IMVI [2]; increasing doses): resistant | LOX-IMVI viability, agent on its own (LOX-IMVI [2]): do not markedly affect LOX-IMVI viability | cells showing release of Cytochrome C (apoptosis), alone (LOX-IMVI [3]): fails to induce apoptosis in resistant cells | activation of the SASP (surface-bound IL1α) (IL1α): causes activation of the SASP, marked by surface-bound IL1α | sensitivity to Vemurafenib (viability) (A375; increasing doses): intermediate sensitive | sensitivity of parental A375, drug alone (A375; parental (regular) A375): sensitive to both drugs individually | viability of Vemurafenib survivors vs parental A375 after a new round of Vemurafenib (A375; pretreated with one dose of Vemurafenib): more resistant to the second round than the parental line | sensitivity of Vemurafenib-resistant A375, Vemurafenib alone (A375; survivors of 3 wks chronic Vemurafenib exposure): showed resistance to Vemurafenib | sensitivity to Vemurafenib (viability) (Malme-3M): sensitive | FOXO4 mRNA and protein levels (FOXO4): is induced by Vemurafenib; also recorded: causes an upregulation in FOXO4 on mRNA (B), and protein levels (C+D)

Source: US11723947B2, “Anti-senescence compounds and uses thereof” (Erasmus University Medical Center Rotterdam, priority 2015, dated 2023)
